Data published in paper PMC5928113, “Properties of the ternary complex formed by yeast eIF4E, p20 and mRNA” (Scientific Reports, 2018).
These are yes or no findings as the source states them, for the method shown. In cells and extracts the contact can be indirect. Some binding calls cover weakened binding; strength is not graded here. For part of these data: Sequences can lack the tags named with a protein.

T1: yeast p20 R55-57L (3×) mutant, N-terminally His6x-tagged (S. cerevisiae) (UniProt P12962)
T1 sequence: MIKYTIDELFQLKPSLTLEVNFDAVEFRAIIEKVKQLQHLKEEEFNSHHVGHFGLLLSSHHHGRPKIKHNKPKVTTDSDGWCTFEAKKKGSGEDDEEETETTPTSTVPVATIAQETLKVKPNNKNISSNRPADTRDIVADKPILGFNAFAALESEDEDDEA

T2: yeast p20 R55-57L, H60-62L (6×) mutant, N-terminally His6x-tagged (S. cerevisiae) (UniProt P12962)
T2 sequence: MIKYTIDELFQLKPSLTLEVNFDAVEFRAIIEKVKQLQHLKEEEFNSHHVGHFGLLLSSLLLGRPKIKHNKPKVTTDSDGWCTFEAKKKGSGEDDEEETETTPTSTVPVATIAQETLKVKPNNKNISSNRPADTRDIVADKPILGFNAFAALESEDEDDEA

T3: yeast p20 wild type, N-terminally His6x-tagged (S. cerevisiae) (UniProt P12962)
T3 sequence: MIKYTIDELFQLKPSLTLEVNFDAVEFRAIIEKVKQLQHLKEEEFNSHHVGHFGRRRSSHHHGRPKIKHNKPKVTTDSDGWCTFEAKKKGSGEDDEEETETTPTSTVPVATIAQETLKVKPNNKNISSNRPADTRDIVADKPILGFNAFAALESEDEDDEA

T4: yeast eIF4E, endogenous in extracts of RH2585-derived strains (S. cerevisiae (endogenous in strain RH2585 derivatives)) (UniProt P07260)
T4 sequence: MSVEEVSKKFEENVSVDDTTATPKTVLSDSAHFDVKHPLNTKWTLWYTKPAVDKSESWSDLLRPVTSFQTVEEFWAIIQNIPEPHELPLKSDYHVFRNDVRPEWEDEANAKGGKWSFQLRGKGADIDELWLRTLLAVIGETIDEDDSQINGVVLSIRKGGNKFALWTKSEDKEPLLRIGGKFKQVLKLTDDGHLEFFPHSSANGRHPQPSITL


Key:
[1] = target: T1, yeast p20 R55-57L (3×) mutant, N-terminally His6x-tagged (S. cerevisiae); experiment: pull-down; untagged eIF4E and N-terminally His6x-tagged p20 (wild type or mutant) co-expressed in E. coli; lysate on Ni-NTA agarose 60 min at 4 °C, washed with 50 mM Tris.HCl pH 8, 500 mM NaCl, 20 mM imidazole, eluted with 250 mM imidazole
[2] = target: T2, yeast p20 R55-57L, H60-62L (6×) mutant, N-terminally His6x-tagged (S. cerevisiae); experiment: as above
[3] = target: T3, yeast p20 wild type, N-terminally His6x-tagged (S. cerevisiae); experiment: as above
[4] = target: T4, yeast eIF4E, endogenous in extracts of RH2585-derived strains (S. cerevisiae (endogenous in strain RH2585 derivatives)); experiment: pull-down; 300 µg total yeast extract on m7GDP-Sepharose in buffer ADP, 1 h at 4 °C, eluted with 1 mM m7GDP; Western blot of eluates with polyclonal antibodies against eIF4E and p20

Binder	binding [1]	binding [2]	binding [3]	binding [4]
yeast eIF4E (eukaryotic translation initiation factor 4E), untagged, co-expressed with His6x-p20 (protein, UniProt P07260 1-213) MSVEEVSKKFEENVSVDDTTATPKTVLSDSAHFDVKHPLNTKWTLWYTKPAVDKSESWSDLLRPVTSFQTVEEFWAIIQNIPEPHELPLKSDYHVFRNDVRPEWEDEANAKGGKWSFQLRGKGADIDELWLRTLLAVIGETIDEDDSQINGVVLSIRKGGNKFALWTKSEDKEPLLRIGGKFKQVLKLTDDGHLEFFPHSSANGRHPQPSITL	binds	binds	binds	
yeast p20 R55-57L (3×) mutant expressed in yeast from an integrated plasmid (protein, UniProt P12962 1-161) MIKYTIDELFQLKPSLTLEVNFDAVEFRAIIEKVKQLQHLKEEEFNSHHVGHFGLLLSSHHHGRPKIKHNKPKVTTDSDGWCTFEAKKKGSGEDDEEETETTPTSTVPVATIAQETLKVKPNNKNISSNRPADTRDIVADKPILGFNAFAALESEDEDDEA				binds

Second part, the binder after the results:

binding [1]	binding [2]	binding [3]	binding [4]	Binder
			binds	yeast p20 wild type expressed in yeast from an integrated plasmid (protein, UniProt P12962 1-161) MIKYTIDELFQLKPSLTLEVNFDAVEFRAIIEKVKQLQHLKEEEFNSHHVGHFGRRRSSHHHGRPKIKHNKPKVTTDSDGWCTFEAKKKGSGEDDEEETETTPTSTVPVATIAQETLKVKPNNKNISSNRPADTRDIVADKPILGFNAFAALESEDEDDEA
			binds	yeast p20 R55-57L, H60-62L (6×) mutant expressed in yeast from an integrated plasmid (protein, UniProt P12962 1-161) MIKYTIDELFQLKPSLTLEVNFDAVEFRAIIEKVKQLQHLKEEEFNSHHVGHFGLLLSSLLLGRPKIKHNKPKVTTDSDGWCTFEAKKKGSGEDDEEETETTPTSTVPVATIAQETLKVKPNNKNISSNRPADTRDIVADKPILGFNAFAALESEDEDDEA
